In PubChem BioAssay AID188 (DTP/NCI, 2004):
Values are animals surviving of animals treated; these mice carried no tumour. Counts of survivors are from the toxicity check (mostly the fifth day) where no day follows; animals may have died later. Schedule codes are those of the source, read here as Q, the interval in days (D) or hours (H), X, the number of doses.

System: CD2F1 mice, nontumored, toxicity/survival
Assay: NCI In Vivo Anticancer Drug Screen. Data for tumor model Nontumored Animals (Toxicity Test) in CD2F1 (CDF1) mice
Conditions: schedule: Q01DX001 (ip), vehicle: saline with Tween-80

## CC(=O)OC1C(NC(=O)N(CCCl)N=O)C(OC(C)=O)C(OC(C)=O)C(NC(=O)N(CCCl)N=O)C1OC(C)=O (stereo not drawn)
dose: 20.0 mg/kg/injection
  survivor count: 9 of 10
dose: 30.0 mg/kg/injection
  survivor count: 10 of 10
dose: 40.0 mg/kg/injection
  survivor count: 10 of 10
dose: 60.0 mg/kg/injection
  survivor count: 10 of 10
dose: 90.0 mg/kg/injection
  survivor count: 10 of 10
dose: 130.0 mg/kg/injection
  survivor count: 10 of 10
dose: 200.0 mg/kg/injection
  survivor count: 10 of 10
dose: 300.0 mg/kg/injection
  survivor count: 9 of 10
